The source of these data is patent US8969294B2 (Istituto di Recerche di Biologia Molecolare P. Angeletti …, priority 2008, dated 2015).

This data set can be described thus: general procedure: Boc solid-phase peptide synthesis; Boc Thr(OBzl) Pam resin; methoxybenzhydrylamine / 4-methylbenzhydrylamine (MBHA) resin; HBTU (FastBoc single coupling); DEPBT for lactam peptides; PyBOP for on-resin la. Conditions: conjugation step.
Setting [1] is: analytical RP-HPLC, Zorbax C8, 214 nm, MALDI or ESI MS.

Consider Glucagon Cys^24 Mal-PEG-20K, for which the difficulty met entry was “The product ratio had not significantly improved”. For the same substance, the “final HPLC purity” value under setting [1] was “˜90%”.
Consider Glucagon Cys^17 Mal-PEG-5K, for which, for the setting “214 nm”, the “final HPLC purity” value is “approx. 90%”.
For Glucagon Cys^29 Mal-PEG-5K, under setting [1], the “final HPLC purity” value is “greater than 95%”.
